Laboratory results published in PubChem BioAssay AID624291 (National Center for Advancing Translational Sciences (NCATS), 2012).
Among all 350,000 compounds or so, about 220 (0.063%) were called active. Inconclusive means that the source gave no clear call. Such entries were picked first, then a sample of the others. The call rests on the fitted dose curve; in most records, active means well fitted activation curve with a large enough effect; inconclusive means small, poorly fitted or top-dose-only effect; inactive means no such curve, though single readings can be large or run the other way. A potency beside an inconclusive call is a rough fit, not a confirmed value.

assay: qHTS for Activators of Integrin-Mediated Alleviation for Muscular Dystrophy; conditions: alpha7betagal myoblasts, beta-gal FDG fluorescence, 48 h; activation: at 38.3 µM (top of the series); further: nearly all actives have a fitted effect of over 60% in size;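 on activation: 100% = response of the positive control SU9516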
Procedure, shortened: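 alpha7betagal+/- myoblasts (passage 13, 250/well) treated 48 h at 37C with compounds at 1:260 dilution of DMSO stock. Lysed, then beta-galactosidase activity read as FDG fluorescence (ex 480/em 540) after 30 min, with pre-read for autofluorescence.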
Potency means the concentration at half of the fitted maximal effect.

Compound | Potency | activation
COc1ccc(Cn2c(O)c(C=Nc3ccccc3)c3ccccc3c2=O)cc1 | inactive | 
COc1nccnc1NS(=O)(=O)c1ccc(NC(=S)NC(=O)/C=C/c2ccc(F)cc2)cc1 | inactive | 
Cc1ccc(C)c(S(=O)(=O)NCc2ccc3c(c2)OCO3)c1 | inconclusive: 15.8 µM [activator, partial curve, poor fit] | 
O=C1CCC2(CC1)NC(=O)N(c1ccccc1)N2 |  | inconclusive: 19.9% [activator]
CC(=O)N1CCN(C(=O)CCc2nc3ccccc3c(=O)[nH]2)CC1 |  | inactive: -3.22% [at 7.66 µM]
O=S(=O)(c1ccccc1OC(F)(F)F)N1CCN(c2ccnc3cc(Cl)ccc23)CC1 | inconclusive: 5.01 µM [activator, single point] | 
O=C1C(Cc2ccccc2)Nc2ncnc(N3CCN(c4ccccc4)CC3)c2N1Cc1ccc(Br)cc1 (stereo unspecified) | inactive | 
C#Cc1ccc(C(=O)Nc2ccc(N3CCC(C)CC3)c(C(N)=O)c2)cc1 | inactive | 
CCN(CC)S(=O)(=O)c1cccc(NC(=O)CCNC(=O)c2ccc([N+](=O)[O-])cc2)c1 | inactive | 
CCN1CCCC1CNC(=O)C(=O)Nc1ccccc1 (stereo unspecified) | inactive | 
Cc1ccc(OCc2n[nH]c(=S)n2Cc2ccccc2)cc1 | inactive | 
CN1C(=O)/C(=C\C(=O)c2cccs2)c2ccccc21 | inactive | 
CCN(CC)c1ccc(/C=N/NC(=O)c2ccco2)cc1 | inactive | 
CN(C)c1cc[n+](/C(C(=S)Nc2ccc(SC(F)F)cc2)=C(/[O-])c2ccccc2)cc1 | inconclusive: 2.82 µM [activator, single point] | 
NC(=O)C1CCN(C(=O)CCc2ccsc2)CC1 | inconclusive: 4.47 µM [activator, single point] | 
Cc1nn(C)cc1C(C(=O)NC1CCCCC1)N(C(=O)Cc1cccs1)c1ccc(F)cc1 (stereo unspecified) | inconclusive: 2.24 µM [activator, partial curve, poor fit] | 
CCOC(=O)Cc1csc(NC(=O)COc2cccc(C)c2)n1 | inconclusive: 3.55 µM [activator, single point] | 
COc1ccccc1C(=O)NC(=O)COC(=O)CNC(=O)c1ccccc1F | inconclusive: 3.16 µM [activator, single point] | 
CCOC(=O)Nc1ccc(C)cc1Br | inactive | 
COCCn1c(SCC(=O)NC2CCCCC2C)nc2ccccc2c1=O (stereo unspecified) | inconclusive: 28.2 µM [activator, single point] | 
CC(=O)/C=C/n1c(=S)oc2ccccc21 | inconclusive: 11.2 µM [activator, single point] | 
COC(=O)c1cc(S(=O)(=O)NC2CCC(C)CC2)cn1C (stereo unspecified) | inconclusive: 1.78 µM [activator, partial curve, poor fit] | 

Compound | Potency | activation
Cn1c(=O)n(C)c2cc([N+](=O)[O-])c(N3CCN(C(=O)c4cccc(F)c4)CC3)cc21 | inactive | 
CCCCn1c(N)c(N(CC)C(=O)CSCc2ccc(C)cc2)c(=O)[nH]c1=O | inconclusive: 28.2 µM [activator, single point] | 
O=C1COc2ccc(C(=O)CSc3ccccc3C(=O)O)cc2N1 | inconclusive: 3.98 µM [activator, partial curve, poor fit] | 
CCCCc1nc(NCc2ccccc2)c(C#N)c2c1CCCC2 | inconclusive: 11.2 µM [activator, single point] | 
CC(C)(C)NC(=O)NC(=O)CN1CCC(Cc2ccccc2)CC1 | inconclusive: 5.01 µM [activator, single point] | 
CC(C)c1cccc(C(C)C)c1NC(=O)CCl | inconclusive: 28.2 µM [activator, single point] | 
CCOC(=O)C1CCN(C2CCN(Cc3nc(-c4ccccc4)no3)CC2)CC1 | inactive | 
C/C(=N\NC(=O)c1nnn(-c2nonc2N)c1-c1cccs1)c1cccnc1 | inconclusive: 12.6 µM [activator, single point] | 
COC(=O)c1ccc(CSc2nc3c(cnn3-c3ccc(C)cc3)c(=O)[nH]2)o1 | inactive | 
CN(C)C(=O)c1ccc(NC(=O)COC(=O)C2(c3ccccc3)CCCC2)cc1 | inactive | 
CCNC(=O)Nn1c(-c2ccccc2)nc2ccccc2c1=O | inconclusive: 2.82 µM [activator, partial curve, poor fit] | 
COc1ccccc1OCc1ccc(C(=O)NN)o1 | inconclusive: 5.01 µM [activator, single point] | 
Cc1nn2c(NCc3ccccn3)cc(C(C)C)nc2c1-c1ccccc1 | inactive | 
CC(=O)c1cccc(NC(=O)Nc2ccc3c(c2)N(C)C(=O)CS3)c1 | inconclusive: 28.2 µM [activator, single point] | 
Cc1cccc(-n2ccc(=O)c(C(=O)Nc3ccc(S(=O)(=O)Nc4nccs4)cc3)n2)c1 | inconclusive: 14.1 µM [activator, single point] | 
CSc1ccc(/C=C(\NC(=O)c2ccccc2)C(=O)NCCN2CCOCC2)cc1 | inconclusive: 0.794 µM [activator, full curve, poor fit] | 
COC(=O)c1ccc(COc2ccc(C)cc2[N+](=O)[O-])o1 | inactive | 
CCCCOCCCNC(=O)N[C@@H](CC(C)C)C(=O)O | inconclusive: 28.2 µM [activator, single point] | 
CCOC(=O)c1sc(NC(=O)c2ccc(S(=O)(=O)N3CCOCC3)cc2)nc1-c1ccccc1 | inconclusive: 5.01 µM [activator, single point] | 
Cc1ccc(C(=O)c2cnc3cc4c(cc3c2S(=O)(=O)c2ccccc2)OCCO4)cc1 | inactive | 
CN(C)c1nc(OCCNC(=O)COc2ccccc2Cl)nc(N(C)C)n1 | inconclusive: 22.4 µM [activator, single point] | 
Cc1ccc(-c2c[n+](CC(=O)Nc3ccccc3)c3n2CCC3)cc1 | inconclusive: 2.82 µM [activator, full curve, poor fit] | 

In the list so far, 4 have a thiophene ring, fused or not:
Compound | Potency | activation
CN1C(=O)/C(=C\C(=O)c2cccs2)c2ccccc21 | inactive | 
NC(=O)C1CCN(C(=O)CCc2ccsc2)CC1 | inconclusive: 4.47 µM [activator, single point] | 
Cc1nn(C)cc1C(C(=O)NC1CCCCC1)N(C(=O)Cc1cccs1)c1ccc(F)cc1 (stereo unspecified) | inconclusive: 2.24 µM [activator, partial curve, poor fit] | 
C/C(=N\NC(=O)c1nnn(-c2nonc2N)c1-c1cccs1)c1cccnc1 | inconclusive: 12.6 µM [activator, single point] | 

Next records follow:

Compound | Potency | activation
CNC(=O)c1cc(Nc2nnc(-c3ccc(C)c(S(N)(=O)=O)c3)c3ccccc23)ccc1OC | inconclusive: 1.12 µM [activator, partial curve, poor fit] | 
CN1CCN(S(=O)(=O)c2cccc3nsnc23)CC1 | inconclusive: 2.82 µM [activator, partial curve, poor fit] | 
COc1ccc(OC)c(NC(=O)CN2C(=O)CSc3ccc(S(=O)(=O)N4CCCC4)cc32)c1 | inconclusive: 14.1 µM [activator, single point] | 
CCC(CO)NS(=O)(=O)c1cc(-c2nn(C)c(=O)c3ccccc23)ccc1C (stereo unspecified) | inconclusive: 1.41 µM [activator, partial curve, poor fit] | 
COCOCCn1cc(CN2CCS(=O)(=O)N(Cc3ccc(-c4ccccc4)cc3)C(CC(C)C)C2=O)nn1 (stereo unspecified) | inactive | 
COc1ccc(-c2cc(C(=O)Nc3ccc(S(=O)(=O)Nc4onc(C)c4C)cc3)c3ccccc3n2)cc1OC | inconclusive: 3.16 µM [activator, single point] | 
CC(=O)Nc1ccc(NC(=O)C/C(C)=N/NC(=O)COc2cc(C)c(Br)cc2Br)cc1 | inconclusive: 7.94 µM [activator, partial curve] | 
Cc1ccccc1NC(=S)NNC(=O)c1cccc(Br)c1 | inconclusive: 2.51 µM [activator, full curve, poor fit] | 
Cc1ccc(-c2noc(Cn3nc(C(=O)O)c4ccccc4c3=O)n2)cc1 | inconclusive: 10 µM [activator, single point] | 
O=C(c1cc2ccccc2o1)N1CCN(S(=O)(=O)c2c(F)cccc2F)CC1 | inconclusive: 2.82 µM [activator, partial curve, poor fit] | 
Cc1ccc(C2=NN(CC(=O)NCCC(C)C)C(=O)CC2)cc1 | inconclusive: 2 µM [activator, partial curve, poor fit] | 
COc1cc(OC)c(OC)cc1/C=C/c1cc(C(=O)O)c2ccccc2n1 | inconclusive: 28.2 µM [activator, single point] | 
COc1cc(-c2n[nH]c(=S)n2-c2ccc(C)cc2)cc(OC)c1OC | inconclusive: 3.16 µM [activator, single point] | 
COc1ccc(C2CC(c3ccccc3)=NN2C(=O)CN2CCN(Cc3ccccc3)CC2)cc1 (stereo unspecified) | inactive | 
c1cc(-c2sc(-c3ccncc3)c(-c3ccncc3)c2-c2ccncc2)ccn1 | inconclusive: 5.62 µM [activator, partial curve, poor fit] | 
COc1cc(OC)c(OC)cc1/C=N/NC(=O)c1ccc(=O)n(C)c1 | inconclusive: 10 µM [activator, single point] | 
Nc1nonc1-n1nnc(C(=O)N/N=C/c2ccc(OCc3ccc(F)cc3)cc2)c1COc1ccccc1 | inconclusive: 1.78 µM [activator, single point] | 
CCn1c(N2CCN(C(=S)Nc3ccc(OC)cc3)CC2)nc2ccccc21 | inconclusive: 1.78 µM [activator, partial curve, poor fit] | 
CS(=O)(=O)NCCNc1cc(Cl)ccc1[N+](=O)[O-] | inconclusive: 10 µM [activator, single point] | 
CCCCN(CC)CCCNC(=O)c1cc2c(=O)[nH]c3ccccc3c2s1 | inconclusive: 12.6 µM [activator, single point] | 
O=S(=O)(Nc1cccc(F)c1)c1cccc2nsnc12 | inconclusive: 3.16 µM [activator, partial curve, poor fit] | 
Cn1c(=O)n(CC(N)=O)c(=O)c2c1nc1n2CCCN1Cc1ccccc1 | inconclusive: 2.82 µM [activator, full curve, poor fit] | 
